No constants are given. Whether binding was seen depends on the method and setting. In cells and extracts the contact can be indirect. These calls come from enrichment with a bait or labelling near it, and not all partners need be listed. Where a sequence is shown, tags or fusion partners need not be part of it.
T1: FLAG-BirA*-GEMC1 (human) (UniProt A6NCL1)
T1 sequence: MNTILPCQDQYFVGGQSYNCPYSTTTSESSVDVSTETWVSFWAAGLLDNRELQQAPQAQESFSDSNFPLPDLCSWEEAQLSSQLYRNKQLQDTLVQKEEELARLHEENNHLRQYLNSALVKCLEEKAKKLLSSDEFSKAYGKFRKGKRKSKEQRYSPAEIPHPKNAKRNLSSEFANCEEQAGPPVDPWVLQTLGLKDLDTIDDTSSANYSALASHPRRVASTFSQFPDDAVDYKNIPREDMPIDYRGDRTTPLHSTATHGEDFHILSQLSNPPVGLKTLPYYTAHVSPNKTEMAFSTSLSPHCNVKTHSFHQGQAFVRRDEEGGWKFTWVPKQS

T2: FLAG-BirA*-MCIDAS (human) (UniProt D6RGH6)
T2 sequence: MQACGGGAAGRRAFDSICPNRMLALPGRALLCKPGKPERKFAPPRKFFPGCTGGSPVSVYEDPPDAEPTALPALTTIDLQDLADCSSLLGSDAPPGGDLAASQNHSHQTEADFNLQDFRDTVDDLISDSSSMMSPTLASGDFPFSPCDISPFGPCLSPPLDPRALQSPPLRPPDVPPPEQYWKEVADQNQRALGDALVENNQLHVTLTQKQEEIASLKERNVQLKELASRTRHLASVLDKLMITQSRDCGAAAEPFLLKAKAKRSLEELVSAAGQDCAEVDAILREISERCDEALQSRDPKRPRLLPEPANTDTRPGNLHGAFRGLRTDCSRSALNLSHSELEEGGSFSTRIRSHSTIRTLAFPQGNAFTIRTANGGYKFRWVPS


Legend:
[1] = target: T1, FLAG-BirA*-GEMC1 (human); assay: proximity labelling; BioID-MS: FLAG-BirA* fusions transiently expressed in AD-293 cells with 50 uM biotin; lysis in modified RIPA, benzonase; biotinylated proteins isolated on streptavidin-sepharose, trypsin, mass spectrometry, SAINTexpress; FLAG-BirA* alone as control
[2] = target: T2, FLAG-BirA*-MCIDAS (human); assay: as above

Row | binding [1] | binding [2] | Binder
1 | binds | binds | p107 (RBL1) (protein, UniProt P28749 1-1068) MFEDKPHAEGAAVVAAAGEALQALCQELNLDEGSAAEALDDFTAIRGNYSLEGEVTHWLACSLYVACRKSIIPTVGKGIMEGNCVSLTRILRSAKLSLIQFFSKMKKWMDMSNLPQEFRERIERLERNFEVSTVIFKKYEPIFLDIFQNPYEEPPKLPRSRKQRRIPCSVKDLFNFCWTLFVYTKGNFRMIGDDLVNSYHLLLCCLDLIFANAIMCPNRQDLLNPSFKGLPSDFHTADFTASEEPPCIIAVLCELHDGLLVEAKGIKEHYFKPYISKLFDRKILKGECLLDLSSFTDNSKAVNKEYEEYVLTVGDFDERIFLGADAEEEIGTPRKFTRDTPLGKLTAQANVEYNLQQHFEKKRSFAPSTPLTGRRYLREKEAVITPVASATQSVSRLQSIVAGLKNAPSDQLINIFESCVRNPVENIMKILKGIGETFCQHYTQSTDEQPGSHIDFAVNRLKLAEILYYKILETVMVQETRRLHGMDMSVLLEQDIFHRSLMACCLEIVLFAYSSPRTFPWIIEVLNLQPFYFYKVIEVVIRSEEGLSRDMVKHLNSIEEQILESLAWSHDSALWEALQVSANKVPTCEEVIFPNNFETGNGGNVQGHLPLMPMSPLMHPRVKEVRTDSGSLRRDMQPLSPISVHERYSSPTAGSAKRRLFGEDPPKEMLMDKIITEGTKLKIAPSSSITAENVSILPGQTLLTMATAPVTGTTGHKVTIPLHGVANDAGEITLIPLSMNTNQESKVKSPVSLTAHSLIGASPKQTNLTKAQEVHSTGINRPKRTGSLALFYRKVYHLASVRLRDLCLKLDVSNELRRKIWTCFEFTLVHCPDLMKDRHLDQLLLCAFYIMAKVTKEERTFQEIMKSYRNQPQANSHVYRSVLLKSIPREVVAYNKNINDDFEMIDCDLEDATKTPDCSSGPVKEERGDLIKFYNTIYVGRVKSFALKYDLANQDHMMDAPPLSPFPHIKQQPGSPRRISQQHSIYISPHKNGSGLTPRSALLYKFNGSPSKSLKDINNMIRQGEQRTKKRVIAIDSDAESPAKRVCQENDDVLLKRLQDVVSERANH
2 | binds | binds | RB (RB1) (protein, UniProt P06400 1-928) MPPKTPRKTAATAAAAAAEPPAPPPPPPPEEDPEQDSGPEDLPLVRLEFEETEEPDFTALCQKLKIPDHVRERAWLTWEKVSSVDGVLGGYIQKKKELWGICIFIAAVDLDEMSFTFTELQKNIEISVHKFFNLLKEIDTSTKVDNAMSRLLKKYDVLFALFSKLERTCELIYLTQPSSSISTEINSALVLKVSWITFLLAKGEVLQMEDDLVISFQLMLCVLDYFIKLSPPMLLKEPYKTAVIPINGSPRTPRRGQNRSARIAKQLENDTRIIEVLCKEHECNIDEVKNVYFKNFIPFMNSLGLVTSNGLPEVENLSKRYEEIYLKNKDLDARLFLDHDKTLQTDSIDSFETQRTPRKSNLDEEVNVIPPHTPVRTVMNTIQQLMMILNSASDQPSENLISYFNNCTVNPKESILKRVKDIGYIFKEKFAKAVGQGCVEIGSQRYKLGVRLYYRVMESMLKSEEERLSIQNFSKLLNDNIFHMSLLACALEVVMATYSRSTSQNLDSGTDLSFPWILNVLNLKAFDFYKVIESFIKAEGNLTREMIKHLERCEHRIMESLAWLSDSPLFDLIKQSKDREGPTDHLESACPLNLPLQNNHTAADMYLSPVRSPKKKGSTTRVNSTANAETQATSAFQTQKPLKSTSLSLFYKKVYRLAYLRLNTLCERLLSEHPELEHIIWTLFQHTLQNEYELMRDRHLDQIMMCSMYGICKVKNIDLKFKIIVTAYKDLPHAVQETFKRVLIKEEEYDSIIVFYNSVFMQRLKTNILQYASTRPPTLSPIPHIPRSPYKFPSSPLRIPGGNIYISPLKSPYKISEGLPTPTKMTPRSRILVSIGESFGTSEKFQKINQMVCNSDRVLKRSAEGSNPPKPLKKLRFDIEGSDEADGSKHLPGESKFQQKLAEMTSTRTRMQKQKMNDSMDTSNKEEK

From article PMC10023806
